# Data published in patent US20210029995A1, “Use of Volatile Organic Compounds as Pesticides” (Certis Europe B.V., priority 2018, published 2021).
# System: H. bacteriophora
# Conditions: 20 μl VOC, checked after 24 hr, sealed Petri dish
# Description: Authenticated M. brunneum VOCs, along with other selected VOCs, were screened for nematicidal activity against S. feltiae and H. bacteriophora. […] Each Petri dish (90 mm) contained 20 ml of the water agar medium. The inoculated plates were kept in darkness for 3 hr at room temperature to acclimatize. The plates were then exposed to 20 μl of the VOC dispensed from a 8 mm paper disc (Whatman™, 0.34 mm thickness) positioned on a 25×25 mm glass coverslip placed in the centre of the Petri dish lid (FIG. 1A). The plates were sealed with a double layer of Parafilm and were kept in the dark at 21° C. and checked after 24 hr. The number of live and dead nematodes were counted with the aid of a stereo binocular microscope (30×).
# The deposition was predetermined using bacterial cultures highly sensitive to these VOCs. The edge of the circular zone of inhibition delineated the area of activity.
# Mean of mortality was calculated from the total number of alive and dead individuals across all circles. There were five replicates per treatment and the whole experiment was repeated twice.
smiles,measurement,value
CC(C)CC(=O)O [Isovaleric acid],Mortality (%) (Mean ± SE) H. bacteriophora (Hb),13 ± 2.8%
